The text below walks through data of the supplement of paper PMC10735217.

For the experiment, the system named is HEK293A TEAD-LUC reporter. Kind of experiment: TEAD-luciferase reporter activity (YAP activation), robust Z score vs plate; higher = stronger YAP/TEAD activation. As to conditions: 24 h. For orientation: Reporter assays use an easily measured gene product as a stand-in for the process of interest.

The list shows a part of the results. This data set is noisy: repeats of one test often differ as much as different tests do.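 Human kidney-derived cells stably carry a construct in which eight TEAD-binding elements drive luciferase, measured by luminescence in a drug-repurposing library screen. A hit is any compound whose signal exceeds the plate mean by more than five robust Z scores.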

Turning to `O=C(O)/C=C/c1c[nH]cn1` [cis-urocanic acid, emulsion], the TEAD-luciferase reporter activity (compound concentration: 2 uM) was inactive: -1.75.
As to `O=C(O)/C=C/c1c[nH]cn1` [cis-urocanic acid, emulsion, BioCis], the TEAD-luciferase reporter activity is inactive: -0.479 (compound concentration: 200 nM) and inactive: 2.17 (compound concentration: 10 uM).
For `Cc1ccc(NC(=O)C2(c3ccc4c(c3)OC(F)(F)O4)CC2)nc1-c1cccc(C(=O)O)c1` [lumacaftor], where the note is “compound concentration: 2 uM”, the TEAD-luciferase reporter activity was inactive: -0.936.
On to `Cc1ccc(NC(=O)C2(c3ccc4c(c3)OC(F)(F)O4)CC2)nc1-c1cccc(C(=O)O)c1` [VX-809 (Lumacaftor)], for which the TEAD-luciferase reporter activity was inactive: -2.19 (compound concentration: 200 nM) and inactive: 1.36 (compound concentration: 10 uM).
With `O=C(Nc1ccccc1)c1cc(CN2CCCC2)c(O)c(CN2CCCC2)c1`, the TEAD-luciferase reporter activity is inactive: 0.188 (compound concentration: 200 nM), inactive: -1.27 (compound concentration: 2 uM) and inactive: -1.19 (compound concentration: 10 uM).
As for `COc1cc(C)c(-c2c(C)nn3c(=O)[nH]c(C)nc23)c(OC)c1`, the TEAD-luciferase reporter activity (compound concentration: 200 nM) is inactive: 2.04, the TEAD-luciferase reporter activity (compound concentration: 2 uM) is inactive: -0.515 and the TEAD-luciferase reporter activity (compound concentration: 10 uM) was inactive: 0.36.
The like results for `CCOC(=O)C1=C(C)NC(C)=C(C(=O)OC)C1c1cccc([N+](=O)[O-])c1` (stereo not given) [Nitrendipine] were, in that order, inactive: -0.284, inactive: 0.0814 and inactive: 0.504.
Regarding `O=C1CCCN1C1CCN(Cc2ccccc2)CC1`, the TEAD-luciferase reporter activity is inactive: 0.434 (compound concentration: 200 nM) and inactive: 0.69 (compound concentration: 10 uM).
Turning to `O=C(O)CCn1c2c(c3ccccc31)C[C@H](NS(=O)(=O)c1ccc(F)cc1)CC2` [ramatroban], the TEAD-luciferase reporter activity (compound concentration: 200 nM) is inactive: -0.389, the TEAD-luciferase reporter activity (compound concentration: 2 uM) is inactive: -2.56 and the TEAD-luciferase reporter activity (compound concentration: 10 uM) was inactive: 0.949.
The matching figures for `N/C=C1\Cc2ccccc2C1=O`: inactive: -1.5, inactive: -0.987 and inactive: -0.376.
The matching figures for `CC(C)C[C@H](NC(=O)CC[C@@H](C)[C@H]1CC[C@H]2[C@@H]3[C@H](O)C[C@@H]4C[C@H](O)CC[C@]4(C)[C@H]3C[C@H](O)[C@]12C)C(=O)N[C@H](C(=O)N[C@@H](Cc1ccccc1)C(=O)N[C@@H](Cc1ccccc1)C(=O)N[C@@H](C)C(=O)O)C(C)C`: inactive: 0.0431, inactive: -0.144 and inactive: 0.809.
Turning to `c1cc2c(cc1C1CCCCC1)c1c3n2CCNC3CCC1` (stereo not given) [Tetrindole], the TEAD-luciferase reporter activity (compound concentration: 200 nM) was inactive: 2.91, the TEAD-luciferase reporter activity (compound concentration: 2 uM) is inactive: -1.24 and the TEAD-luciferase reporter activity (compound concentration: 10 uM) was inactive: -0.936.
Regarding `CC1(C)[C@@H]2CC[C@@]1(C)C(=O)C2` [camphor transdermal], the TEAD-luciferase reporter activity (compound concentration: 2 uM) was inactive: -1.31.
As for `CC1(C)[C@@H]2CC[C@@]1(C)C(=O)C2` [camphor transdermal, Cpex], the TEAD-luciferase reporter activity was inactive: -1.26 (compound concentration: 200 nM) and inactive: 0.886 (compound concentration: 10 uM).
Take `O=c1ccc2cc3ccoc3cc2o1` [Psoralen]: the TEAD-luciferase reporter activity by setting is: (compound concentration: 200 nM) inactive: -0.79; (compound concentration: 2 uM) inactive: 2.34; (compound concentration: 10 uM) inactive: 0.702.
The matching figures for `Cc1nccn1Cc1ccccn1`: inactive: 0.533, inactive: 0.585 and inactive: 3.63.
The matching figures for `CC(C)=CCOc1cc(NC(=O)c2ncsc2C)ccc1Cl`: inactive: 0.498, inactive: 1.16 and inactive: 1.49.
The matching figures for `COc1ccc(C[C@@H]2NC(=O)CC3(CCCCC3)SSC[C@@H](C(=O)N3CCC[C@H]3C(=O)N[C@@H](CCCNC(=N)N)C(=O)NCC(N)=O)NC(=O)[C@H](CC(N)=O)NC(=O)[C@H](CCC(N)=O)NC(=O)[C@H](Cc3ccccc3)NC2=O)cc1` [Manning Compound]: inactive: -0.683, inactive: 1.01 and inactive: -0.15.
On to `C=C(C#N)C(=O)OCCCC` [n-Butyl-2-cyanoacrylate], for which the TEAD-luciferase reporter activity (compound concentration: 200 nM) is inactive: -0.64, the TEAD-luciferase reporter activity (compound concentration: 2 uM) was inactive: 0.528 and the TEAD-luciferase reporter activity (compound concentration: 10 uM) is inactive: -0.877.
The matching figures for `CC1(C)N=C(c2cccc[n+]2[O-])c2cc(Br)c(Cl)cc2O1`: inactive: -1.88, inactive: 0.247 and inactive: 1.64.
The matching figures for `COC(=O)[C@H]1CC[C@@H]2[C@@H]3CC[C@@H]4NC(=O)C=C[C@]4(C)C3CC[C@]12C` (stereo not given in full): inactive: -0.867, inactive: -0.169 and inactive: -2.35.
For `O=C(Cc1cccc(Cl)c1)N1CCC(C(=O)N2CCC(c3ccccc3)CC2)CC1`, the TEAD-luciferase reporter activity runs as follows: (compound concentration: 200 nM) inactive: -0.886; (compound concentration: 10 uM) inactive: 1.1.
`NS(=O)(=O)c1ccc(-n2nc(C(F)(F)F)cc2-c2ccc(F)cc2)cc1` [Mavacoxib]: the TEAD-luciferase reporter activity reads like this: (compound concentration: 200 nM) inactive: 0.429; (compound concentration: 2 uM) inactive: -1.22; (compound concentration: 10 uM) inactive: 2.72.
The like results for `CN1CCCCC1CCN1c2ccccc2Sc2ccc(S(C)(=O)=O)cc21` (stereo not given) were, in that order, inactive: -1.68, inactive: -0.927 and inactive: 2.35.
The matching figures for `CCN(c1ccccc1)c1cc(NC)[n+](C)c(C)n1`: inactive: -0.979, inactive: -1.57 and inactive: -0.233.
The like results for `O=C(Nc1nccs1)c1c(C(Cl)Cl)nc2c(C(F)(F)F)cccc2c1O` were, in that order, inactive: 0.0422, inactive: 0.953 and inactive: 1.03.
In the case of `O=C1NCc2ccccc2CC12CCCCN2Cc1ccccc1F` (stereo not given), the TEAD-luciferase reporter activity runs as follows: (compound concentration: 200 nM) inactive: 3.06; (compound concentration: 10 uM) inactive: -0.418.
On to `CCOc1ccccc1-n1c(C)ccc1-c1ccccc1`, for which the TEAD-luciferase reporter activity is, setting by setting: (compound concentration: 200 nM) inactive: -1.71; (compound concentration: 2 uM) inactive: 2.38; (compound concentration: 10 uM) inactive: 0.947.
The like results for `CC1(C)CC(NC(=O)C(=O)Nc2ccc(Br)cc2)CC(C)(C)N1` were, in that order, inactive: 1.97, inactive: -1.19 and inactive: 0.811.
